In the supplement of paper PMC12067093, “Discovery and optimisation of a covalent ligand for TRIM25 and its application to targeted protein ubiquitination” (Chemical Science, 2025):
Some of the results follow.

Sequences of proteins named here, by UniProt entry; tags and fusion partners are left off. A change or cut given only in a name is not applied to a line headed by its entry.
UniProt Q15942: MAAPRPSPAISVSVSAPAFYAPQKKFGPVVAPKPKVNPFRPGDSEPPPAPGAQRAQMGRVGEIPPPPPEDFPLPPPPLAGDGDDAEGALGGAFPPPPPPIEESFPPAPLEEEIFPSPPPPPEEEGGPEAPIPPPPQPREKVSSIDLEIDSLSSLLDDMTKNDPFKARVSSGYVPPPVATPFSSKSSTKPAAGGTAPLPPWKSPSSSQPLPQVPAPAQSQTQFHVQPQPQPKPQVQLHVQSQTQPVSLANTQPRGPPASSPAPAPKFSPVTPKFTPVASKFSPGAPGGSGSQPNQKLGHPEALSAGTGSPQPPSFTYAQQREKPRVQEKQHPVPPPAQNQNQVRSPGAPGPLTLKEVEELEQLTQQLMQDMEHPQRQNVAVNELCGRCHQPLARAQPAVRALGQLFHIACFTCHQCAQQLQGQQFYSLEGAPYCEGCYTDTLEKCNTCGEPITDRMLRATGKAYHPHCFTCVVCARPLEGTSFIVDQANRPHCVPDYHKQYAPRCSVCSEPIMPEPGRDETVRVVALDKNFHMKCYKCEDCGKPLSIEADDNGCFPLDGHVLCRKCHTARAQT
UniProt Q9P1U0, whole entry, looked up: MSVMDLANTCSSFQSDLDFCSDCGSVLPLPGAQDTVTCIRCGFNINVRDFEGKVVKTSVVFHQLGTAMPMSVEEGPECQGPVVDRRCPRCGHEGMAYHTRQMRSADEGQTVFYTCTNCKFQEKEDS
UniProt A7E2V4, whole entry, looked up: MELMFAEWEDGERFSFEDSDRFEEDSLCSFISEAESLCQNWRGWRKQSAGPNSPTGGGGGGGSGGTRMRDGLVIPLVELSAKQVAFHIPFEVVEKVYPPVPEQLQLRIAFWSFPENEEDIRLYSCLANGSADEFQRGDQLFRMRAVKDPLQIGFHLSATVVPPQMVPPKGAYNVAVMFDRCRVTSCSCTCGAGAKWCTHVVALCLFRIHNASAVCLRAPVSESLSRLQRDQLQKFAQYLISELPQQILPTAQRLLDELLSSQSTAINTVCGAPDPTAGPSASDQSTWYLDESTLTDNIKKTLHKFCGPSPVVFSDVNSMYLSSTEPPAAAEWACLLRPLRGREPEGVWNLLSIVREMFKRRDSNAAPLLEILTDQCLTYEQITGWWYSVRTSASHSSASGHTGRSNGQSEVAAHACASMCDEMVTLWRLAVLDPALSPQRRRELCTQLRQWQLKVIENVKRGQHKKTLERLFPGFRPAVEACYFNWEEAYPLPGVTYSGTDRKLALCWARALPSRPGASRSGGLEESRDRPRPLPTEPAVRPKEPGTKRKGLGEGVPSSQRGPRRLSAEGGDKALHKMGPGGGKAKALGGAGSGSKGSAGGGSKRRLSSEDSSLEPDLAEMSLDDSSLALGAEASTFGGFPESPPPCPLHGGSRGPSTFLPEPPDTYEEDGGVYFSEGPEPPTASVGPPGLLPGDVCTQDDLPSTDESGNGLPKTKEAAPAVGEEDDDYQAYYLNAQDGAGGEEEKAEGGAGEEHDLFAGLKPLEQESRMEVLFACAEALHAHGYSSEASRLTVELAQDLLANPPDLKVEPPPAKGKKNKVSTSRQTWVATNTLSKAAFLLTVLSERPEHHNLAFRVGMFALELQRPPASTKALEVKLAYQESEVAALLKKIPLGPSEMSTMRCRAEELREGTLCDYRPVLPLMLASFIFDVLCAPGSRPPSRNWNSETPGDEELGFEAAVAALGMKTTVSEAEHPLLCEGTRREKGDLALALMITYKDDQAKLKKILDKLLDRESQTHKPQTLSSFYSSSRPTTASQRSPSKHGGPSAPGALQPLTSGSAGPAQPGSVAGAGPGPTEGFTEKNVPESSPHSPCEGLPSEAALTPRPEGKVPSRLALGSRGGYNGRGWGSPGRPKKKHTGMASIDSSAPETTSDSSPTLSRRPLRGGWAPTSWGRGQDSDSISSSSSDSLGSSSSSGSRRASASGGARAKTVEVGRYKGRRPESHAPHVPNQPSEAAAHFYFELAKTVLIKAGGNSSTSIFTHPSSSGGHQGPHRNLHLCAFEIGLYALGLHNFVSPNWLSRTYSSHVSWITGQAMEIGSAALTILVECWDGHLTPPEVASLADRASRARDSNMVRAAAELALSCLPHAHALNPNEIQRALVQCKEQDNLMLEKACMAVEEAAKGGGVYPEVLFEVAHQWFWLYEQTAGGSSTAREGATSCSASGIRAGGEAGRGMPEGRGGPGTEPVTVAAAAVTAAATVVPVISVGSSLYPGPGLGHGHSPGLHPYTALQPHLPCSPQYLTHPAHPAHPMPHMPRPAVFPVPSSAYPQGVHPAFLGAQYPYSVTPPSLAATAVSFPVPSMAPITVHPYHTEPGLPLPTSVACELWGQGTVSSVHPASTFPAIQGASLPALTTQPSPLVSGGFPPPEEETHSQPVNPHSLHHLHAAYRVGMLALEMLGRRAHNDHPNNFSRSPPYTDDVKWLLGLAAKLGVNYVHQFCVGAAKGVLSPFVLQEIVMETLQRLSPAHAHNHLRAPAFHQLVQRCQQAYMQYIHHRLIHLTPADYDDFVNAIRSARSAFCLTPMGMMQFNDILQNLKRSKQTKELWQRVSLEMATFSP
UniProt Q9UHR6: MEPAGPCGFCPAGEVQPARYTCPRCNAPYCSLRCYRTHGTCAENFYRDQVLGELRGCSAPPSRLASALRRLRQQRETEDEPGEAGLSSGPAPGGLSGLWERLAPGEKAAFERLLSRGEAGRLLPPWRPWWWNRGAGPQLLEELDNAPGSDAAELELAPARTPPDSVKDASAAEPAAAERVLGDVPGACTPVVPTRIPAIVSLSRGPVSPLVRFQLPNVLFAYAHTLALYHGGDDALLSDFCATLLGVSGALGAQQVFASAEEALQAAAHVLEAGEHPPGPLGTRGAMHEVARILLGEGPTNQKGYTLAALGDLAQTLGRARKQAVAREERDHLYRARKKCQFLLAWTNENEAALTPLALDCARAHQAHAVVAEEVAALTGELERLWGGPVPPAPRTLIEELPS
UniProt O95218: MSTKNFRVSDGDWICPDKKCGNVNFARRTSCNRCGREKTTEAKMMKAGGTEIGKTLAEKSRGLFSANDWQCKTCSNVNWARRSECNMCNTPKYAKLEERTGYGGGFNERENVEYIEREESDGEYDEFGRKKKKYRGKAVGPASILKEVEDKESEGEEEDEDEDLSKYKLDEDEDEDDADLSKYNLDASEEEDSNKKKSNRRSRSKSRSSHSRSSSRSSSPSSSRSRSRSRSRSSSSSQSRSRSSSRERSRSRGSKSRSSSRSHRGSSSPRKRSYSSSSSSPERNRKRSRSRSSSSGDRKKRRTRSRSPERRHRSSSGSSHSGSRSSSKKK
UniProt O43264: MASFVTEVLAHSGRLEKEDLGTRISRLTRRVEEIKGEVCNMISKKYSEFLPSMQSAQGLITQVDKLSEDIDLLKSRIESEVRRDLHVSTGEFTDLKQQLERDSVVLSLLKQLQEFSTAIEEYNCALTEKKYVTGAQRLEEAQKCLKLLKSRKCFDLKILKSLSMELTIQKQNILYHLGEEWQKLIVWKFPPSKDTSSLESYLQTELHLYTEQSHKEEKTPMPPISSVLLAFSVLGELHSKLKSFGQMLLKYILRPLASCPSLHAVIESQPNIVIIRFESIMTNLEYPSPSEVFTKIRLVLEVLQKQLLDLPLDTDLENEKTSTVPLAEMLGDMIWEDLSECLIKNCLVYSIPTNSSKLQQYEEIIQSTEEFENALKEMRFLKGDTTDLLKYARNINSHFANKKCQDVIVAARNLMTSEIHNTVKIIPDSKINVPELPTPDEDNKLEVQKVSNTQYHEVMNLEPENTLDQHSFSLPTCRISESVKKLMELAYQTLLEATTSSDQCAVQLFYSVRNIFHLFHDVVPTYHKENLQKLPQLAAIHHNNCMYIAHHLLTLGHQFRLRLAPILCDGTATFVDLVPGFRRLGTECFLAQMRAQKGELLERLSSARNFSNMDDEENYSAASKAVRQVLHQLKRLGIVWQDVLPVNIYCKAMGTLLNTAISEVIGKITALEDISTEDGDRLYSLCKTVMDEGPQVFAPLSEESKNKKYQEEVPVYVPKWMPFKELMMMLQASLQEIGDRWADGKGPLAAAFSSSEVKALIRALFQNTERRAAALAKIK
UniProt Q9NWK9: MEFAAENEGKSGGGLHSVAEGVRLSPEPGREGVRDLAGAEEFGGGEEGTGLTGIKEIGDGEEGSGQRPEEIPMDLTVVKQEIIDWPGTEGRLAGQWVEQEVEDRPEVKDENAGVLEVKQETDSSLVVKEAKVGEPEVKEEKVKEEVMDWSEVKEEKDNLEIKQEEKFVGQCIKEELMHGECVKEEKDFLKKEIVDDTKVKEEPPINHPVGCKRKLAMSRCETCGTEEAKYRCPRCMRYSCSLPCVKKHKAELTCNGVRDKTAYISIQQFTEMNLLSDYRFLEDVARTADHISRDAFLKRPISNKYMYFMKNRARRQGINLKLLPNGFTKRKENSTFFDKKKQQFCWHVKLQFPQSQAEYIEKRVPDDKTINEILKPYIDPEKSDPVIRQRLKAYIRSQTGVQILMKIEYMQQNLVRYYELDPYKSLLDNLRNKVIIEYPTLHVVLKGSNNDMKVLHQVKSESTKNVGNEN
UniProt Q9P2E3: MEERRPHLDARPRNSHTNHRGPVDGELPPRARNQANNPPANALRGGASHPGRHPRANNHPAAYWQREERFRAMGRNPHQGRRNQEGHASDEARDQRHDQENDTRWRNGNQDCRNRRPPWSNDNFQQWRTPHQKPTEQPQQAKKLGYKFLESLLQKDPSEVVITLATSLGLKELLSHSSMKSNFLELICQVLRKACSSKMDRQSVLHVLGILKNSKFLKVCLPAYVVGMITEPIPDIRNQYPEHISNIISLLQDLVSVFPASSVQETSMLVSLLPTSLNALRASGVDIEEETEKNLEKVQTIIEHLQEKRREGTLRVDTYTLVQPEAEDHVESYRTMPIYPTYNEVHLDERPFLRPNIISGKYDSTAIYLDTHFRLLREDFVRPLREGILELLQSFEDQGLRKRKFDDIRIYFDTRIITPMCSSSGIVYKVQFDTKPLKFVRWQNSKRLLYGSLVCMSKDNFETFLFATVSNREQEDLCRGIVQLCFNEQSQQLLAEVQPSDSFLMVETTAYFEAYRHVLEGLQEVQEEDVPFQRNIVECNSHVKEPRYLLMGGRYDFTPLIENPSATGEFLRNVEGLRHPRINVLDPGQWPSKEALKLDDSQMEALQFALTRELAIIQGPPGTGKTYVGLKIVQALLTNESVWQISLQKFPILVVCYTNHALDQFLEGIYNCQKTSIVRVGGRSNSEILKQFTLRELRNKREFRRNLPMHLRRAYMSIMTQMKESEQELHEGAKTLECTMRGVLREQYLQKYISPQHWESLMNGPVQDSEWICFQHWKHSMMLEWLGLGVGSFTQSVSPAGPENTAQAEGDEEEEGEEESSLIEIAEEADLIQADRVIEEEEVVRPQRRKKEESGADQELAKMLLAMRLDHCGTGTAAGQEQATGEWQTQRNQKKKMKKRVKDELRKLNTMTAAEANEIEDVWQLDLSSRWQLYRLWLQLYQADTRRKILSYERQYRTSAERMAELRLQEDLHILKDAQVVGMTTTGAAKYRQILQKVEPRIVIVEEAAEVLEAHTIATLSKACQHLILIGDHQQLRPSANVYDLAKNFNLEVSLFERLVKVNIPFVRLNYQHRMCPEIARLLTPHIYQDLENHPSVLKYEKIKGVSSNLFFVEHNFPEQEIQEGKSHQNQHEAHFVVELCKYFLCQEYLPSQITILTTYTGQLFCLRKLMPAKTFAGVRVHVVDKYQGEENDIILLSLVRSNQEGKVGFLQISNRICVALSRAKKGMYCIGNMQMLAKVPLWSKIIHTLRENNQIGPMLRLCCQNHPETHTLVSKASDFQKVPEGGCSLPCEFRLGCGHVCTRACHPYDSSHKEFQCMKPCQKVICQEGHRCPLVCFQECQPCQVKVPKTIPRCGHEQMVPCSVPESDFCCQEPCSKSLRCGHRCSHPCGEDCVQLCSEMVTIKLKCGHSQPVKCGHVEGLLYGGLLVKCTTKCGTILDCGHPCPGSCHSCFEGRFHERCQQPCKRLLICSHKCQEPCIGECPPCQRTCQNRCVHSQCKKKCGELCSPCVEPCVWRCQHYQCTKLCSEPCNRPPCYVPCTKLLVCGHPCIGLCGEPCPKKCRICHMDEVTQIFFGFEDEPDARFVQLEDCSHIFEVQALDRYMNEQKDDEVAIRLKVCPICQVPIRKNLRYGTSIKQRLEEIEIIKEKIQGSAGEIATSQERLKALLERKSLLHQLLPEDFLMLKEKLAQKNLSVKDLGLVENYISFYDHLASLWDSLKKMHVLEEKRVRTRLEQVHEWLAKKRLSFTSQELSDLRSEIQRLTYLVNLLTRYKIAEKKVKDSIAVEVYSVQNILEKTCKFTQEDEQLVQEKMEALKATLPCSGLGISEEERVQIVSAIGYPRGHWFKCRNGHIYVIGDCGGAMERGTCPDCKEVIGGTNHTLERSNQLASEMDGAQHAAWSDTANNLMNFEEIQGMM

Compound: Cc1cc(ccc1-c1ccccc1)C(=O)N1CCCN(CC1)C(=O)CCl [compound 10]
Experiment: probe-labelled cysteine peptide fold change vs DMSO (competition) (log2 fold change); higher = less target engagement (more negative = stronger competition)
Settings: THP-1, incubation time: 4 h
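Note: competitive profiling in live THP-1 cells: cysteine peptides tagged with an iodoacetamide desthiobiotin (IA-DTB) probe, intensity after compound treatment relative to DMSO-treated cells.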

Target | probe-labelled cysteine peptide fold change (10 µM) | probe-labelled cysteine peptide fold change (50 µM)
ZZEF1_O43149_719_AEAEQSVTCAHCR (UniProt O43149) | 0.0218 | -0.134
ZYX_Q15942_537+540+553_CEDCGKPLSIEADDNGCFPLDGHVLCR (UniProt Q15942) | -0.154 | -0.821
ZYX_Q15942_537+540_CEDCGKPLSIEADDNGCFPLDGHVLCR (UniProt Q15942) | 0.194 | -0.104
ZZEF1_O43149_2553_CDQATAESNPVTQK (UniProt O43149) | -0.226 | 0.0833
ZNRF1_Q8ND25_202_LPCLCIYHK (UniProt Q8ND25) | -0.0357 | -0.0614
ZYX_Q15942_540+562_CEDCGKPLSIEADDNGCFPLDGHVLCR (UniProt Q15942) | 0.0401 | -0.199
ZYX_Q15942_470+473_AYHPHCFTCVVCAR (UniProt Q15942) | 0.0309 | -0.247
ZNF865_P0CJ78_383_PFSCSVCSK (UniProt P0CJ78) | -0.0919 | -0.259
ZNRD1_Q9P1U0_90_CGHEGMAYHTR (UniProt Q9P1U0) | -0.182 | -0.412
ZYX_Q15942_470_AYHPHCFTCVVCAR (UniProt Q15942) | 0.0156 | 0.121
ZSWIM8_A7E2V4_1365_AAAELALSCLPHAHALNPNEIQR (UniProt A7E2V4) | 0.147 | -0.0262
ZNHIT2_Q9UHR6_41_THGTCAENFYR (UniProt Q9UHR6) | -0.0377 | -0.271
ZZEF1_O43149_2466_ICFLMAHDALNAPLHILR (UniProt O43149) | 0.0542 | -0.135
ZYX_Q15942_467+470+473_AYHPHCFTCVVCAR (UniProt Q15942) | -0.111 | -0.34
ZRANB2_O95218_15_VSDGDWICPDK (UniProt O95218) | -0.064 | -0.131
ZWILCH_Q9H900_585_IFFTNMVTCSQVHFK (UniProt Q9H900) | -0.0899 | 0.0202
ZW10_O43264_346_NCLVYSIPTNSSK (UniProt O43264) | 0.235 | 0.0445
ZSWIM8_A7E2V4_1094_NVPESSPHSPCEGLPSEAALTPRPEGK (UniProt A7E2V4) | -0.465 | -0.583
ZYX_Q15942_444+447_CNTCGEPITDR (UniProt Q15942) | 0.0967 | -0.162

Target | probe-labelled cysteine peptide fold change (10 µM) | probe-labelled cysteine peptide fold change (50 µM)
ZRANB2_O95218_71_GLFSANDWQCK (UniProt O95218) | -0.0624 | -0.328
ZNHIT6_Q9NWK9_244_YSCSLPCVK (UniProt Q9NWK9) | -0.179 | -0.392
ZYX_Q15942_492_PLEGTSFIVDQANRPHCVPDYHK (UniProt Q15942) | -0.105 | -0.253
ZYX_Q15942_537+553_CEDCGKPLSIEADDNGCFPLDGHVLCR (UniProt Q15942) | -0.0759 | -0.421
ZW10_O43264_568_LAPILCDGTATFVDLVPGFR (UniProt O43264) | -0.16 | -0.0756
ZWILCH_Q9H900_7_LNCAAEDFYSR (UniProt Q9H900) | 0.017 | 0.0199
ZNHIT2_Q9UHR6_188_VLGDVPGACTPVVPTR (UniProt Q9UHR6) | -0.284 | -0.106
ZZEF1_O43149_1832+1835_TCFLGGVKPEGHGDDHEMVNMEFTCDHCQGLIIGR (UniProt O43149) | -0.0669 | -0.343
ZNF839_A8K0R7_48+54_TEPQSCFLSDLCQPPAQGFVQR (UniProt A8K0R7) | -0.175 | 0.672
ZNFX1_Q9P2E3_1554_LLVCGHPCIGLCGEPCPK (UniProt Q9P2E3) | 0.059 | -0.149
ZZZ3_Q8IYH5_24_STVGLNGLDESFCGR (UniProt Q8IYH5) | -0.35 | 0.146
ZNHIT6_Q9NWK9_171_FVGQCIK (UniProt Q9NWK9) | -0.528 | -0.0997
ZNFX1_Q9P2E3_1591_FVQLEDCSHIFEVQALDR (UniProt Q9P2E3) | 0.0478 | 0.0689
ZYX_Q15942_444_CNTCGEPITDR (UniProt Q15942) | 0.132 | 0.248
ZW10_O43264_588_RLGTECFLAQMR (UniProt O43264) | 0.00573 | -0.0952
ZNHIT2_Q9UHR6_361_CQFLLAWTNENEAALTPLALDCAR (UniProt Q9UHR6) | -0.0201 | -0.271
ZNFX1_Q9P2E3_1558_LLVCGHPCIGLCGEPCPK (UniProt Q9P2E3) | -0.0234 | -0.124
ZYX_Q15942_447_CNTCGEPITDR (UniProt Q15942) | -0.171 | 0.173
ZZEF1_O43149_728_DTEESVCGATLLLR (UniProt O43149) | -0.0306 | -0.17

Whole records from above. Order of values: probe-labelled cysteine peptide fold change (10 µM)	probe-labelled cysteine peptide fold change (50 µM)
ZNHIT6_Q9NWK9_171_FVGQCIK (UniProt Q9NWK9) is entered as -0.528	-0.0997
ZNHIT2_Q9UHR6_188_VLGDVPGACTPVVPTR (UniProt Q9UHR6) is entered as -0.284	-0.106
